Source: patent US7781464B2, “Heterocyclic diphenyl ethers” (Bexel Pharmaceuticals, Inc., priority 2003, dated 2010)
At least one compound was matched to its structure with a doubt left.

Tested on: 3T3-L1 fibroblasts
Experiment: Adipogenesis in 3T3-L1 fibroblasts (Oil-red-O staining)
Type: cell-based
Conditions: stained on day 11, rosiglitazone 10 μM positive control
Method: All known PPAR-γ agonists (both TZD or non-TZDs) induce differentiation in the fibroblast cells. The adipogenic potential of these compounds are correlated with their affinity to this receptor. Referring to FIG. 3, to check whether the Compounds 1 and 2 have any affinity to these receptors, 3T3-L1 fibroblasts were treated with either DMSO control or rosiglitazone (all at 10 μM concentrations) as positive control or these two compounds for several days at different concentrations. On day 11th, the differentiated adipocytes were stained with Oil-red-O (Sigma) and washed thoroughly to remove the unbound stain. The stained differentiated adipocytes were visualized under high-resolution microscope.

`CN(CCOc1ccc(CC2SC(=O)NC2=O)cc1)c1ccccn1` (stereo not shown) [rosiglitazone, reference compound] was tested, and the “adipogenesis (differentiation of fibroblasts, Oil-red-O)” value was “strongly induced adipogenesis”.
